Test results taken from PubChem BioAssay AID2685 (National Center for Advancing Translational Sciences (NCATS), 2010).
The other results are listed elsewhere or left out. Further columns of the screen follow, without active or inactive calls. The list favours compounds with an active or inconclusive main result. The note in brackets gives the kind of curve behind each potency; many fits are weak.

Test: qHTS Assay for Lipid Storage Modulators in Drosophila S3 Cells;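 on cell number change: cells counted by Cell Tracker Red CMTPX staining in the red channel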
Details: BODIPY lipid droplet fluorescence, 18-24 h; for cell number change: measured here: cell count max response, cells fed with added oleic acid
Outline: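 Laser-scanning cytometry quantifies lipid droplet accumulation (500–530 nm total intensity; droplet/cell object ratio) in oleic acid-fed (400 uM added) Drosophila S3 cells treated with a concentration series. 20 uM Triacsin C defined 100% inhibition.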

[1] = measured here: cell number channel AC50, cells fed with added oleic acid
[2] = measured here: lipid fluorescence (Fed channel) AC50, cells fed with added oleic acid

Structure (SMILES) | cell number change [%] | AC50 [1] | AC50 [2]
Cc1cc(C(=O)NC2CCCc3c2cnn3-c2ccc(C(C)(C)C)cc2)n[nH]1 (stereo unspecified) | -53.6 | 7.31 µM [falling, partial curve, poor fit] | 0.58 µM [falling, full curve]
O=c1ccc(Cc2ccccn2)n[nH]1 | 11.1 |  | 29.1 µM [falling, single point]
C/C(=N\NC(=O)c1nnn(-c2nonc2N)c1-c1ccc(Cl)c(Cl)c1)c1ccncc1 | 6.73 |  | 
CC1Cc2ccccc2N1C(=O)C1CCCN(S(=O)(=O)c2cccc3nsnc23)C1 (stereo unspecified) |  |  | 25.9 µM [rising, single point]
CC(C)(C)c1ccc(NC(=O)Cn2cnc3cc([N+](=O)[O-])ccc3c2=O)cc1 | 2.77 |  | 
CC1(OCON)CCCc2ccccc21 (stereo unspecified) | -8.38 |  | 
COc1ccc2cc(Br)ccc2c1CC(=O)NC1CC(C)(C)NC(C)(C)C1 | 0.204 |  | 3.66 µM [falling, partial curve]
CC1=Nc2ccccc2/C1=C\c1nc(-c2ccc(F)cc2)oc1O |  |  | 23.1 µM [falling, partial curve]
COc1ccc(S(=O)(=O)N2CCCCC2)cc1NC(=O)CN(Cc1ccco1)Cc1ccco1 | -5.55 |  | 1.16 µM [falling, full curve, poor fit]
O=C(CNC(=O)c1ccc(Br)o1)Nc1ccc(N2CCCCCC2)cc1 |  |  | 0.259 µM [rising, full curve, poor fit]
CC(C)c1ccc(NC(=O)CN(Cc2ccccc2)S(C)(=O)=O)cc1 | -39.9 | 20.6 µM [falling, single point] | 20.6 µM [falling, partial curve]
Cc1csc(NC(=O)C(C)Oc2ccc(Cl)cc2C)n1 (stereo unspecified) | -12.4 |  | 0.13 µM [rising, full curve, poor fit]
O=C(Nc1nc(-c2ccccn2)cs1)c1ncc(Cl)c(Cl)c1Cl | 13.6 |  | 6.51 µM [rising, single point]
COc1ccc(-c2nc(N)nc(C)c2-c2ccc(Cl)cc2)c(O)c1 | -30.5 | 16.4 µM [falling, partial curve, poor fit] | 16.4 µM [falling, single point]
CCN(CC(=O)Nc1c(F)cccc1F)C(=O)c1cn2ccccc2n1 | 12.8 |  | 20.6 µM [rising, single point]
CC(=O)Nc1ccc(SCC(=O)c2cc(C)n(-c3ccccc3F)c2C)cc1 | 40.3 | 4.61 µM [falling, partial curve] | 29.1 µM [rising, partial curve]
O=C(O)c1ccc(NC(=O)c2cccc(C(=O)Nc3ccc(C(=O)O)cc3)c2)cc1 | -16.2 |  | 0.13 µM [falling, full curve, poor fit]
CCOc1ccc(NS(=O)(=O)c2ccc(C(=O)NCCCN3CCCC3=O)cc2)cc1 | -3.83 |  | 
COc1ccc(C2=NN(CCC(=O)NCc3ccc4c(c3)OCO4)C(=O)CC2)cc1 | 11.4 |  | 14.6 µM [rising, single point]
CCOC(=O)c1cccc(NC(=O)CCn2c(=O)oc3ccccc32)c1 | -4.96 |  | 6.51 µM [rising, single point]
CN(CC(=O)Nc1ccccc1Br)C(=O)CNC(=O)Cc1cccc2ccccc12 | 42.5 | 0.82 µM [rising, full curve, poor fit] | 29.1 µM [rising, single point]

Structure (SMILES) | cell number change [%] | AC50 [1] | AC50 [2]
CSc1c(SCc2ccccc2)cnn(-c2ccccc2)c1=O | 11 |  | 0.00461 µM [falling, full curve, poor fit]
N/C(=N/OCC(=O)Nc1cccc2ccccc12)c1nonc1N | -6.74 |  | 
COc1ccc(CN2CCC(C(=O)Nc3ccc(Oc4cccnc4)cc3)CC2)c(C)c1C | -13.5 |  | 
ClC1(Cl)CC1Cn1cnc2ccccc21 (stereo unspecified) |  |  | 3.26 µM [rising, partial curve, poor fit]
CCOC(=O)c1c(C)oc(NC(=O)COc2ccc(Cl)cc2C)c1C#N | -2.86 |  | 
COC(=O)CSc1[nH]c2ccccc2c1[N+](=O)[O-] | -21.2 |  | 
Cc1ccc(SCc2c(C(=O)N/N=C/c3ccc4c(c3)OCO4)nnn2-c2nonc2N)cc1 | 22.5 |  | 29.1 µM [falling, single point]
O=C(N=C1SC2CS(=O)(=O)CC2N1c1ccc(Cl)cc1Cl)C1CC1 (stereo unspecified) | 7.76 |  | 
NS(=O)(=O)c1cc(C(=O)OCC(=O)Nc2ccccc2[N+](=O)[O-])ccc1Cl | -12.9 |  | 
COc1ccc(O)c(/C=N\NC(=O)CCn2nnc3ccccc32)c1 |  | 0.58 µM [rising, partial curve] | 
COc1ccc(-c2nc(NC(C)=O)sc2-c2ccc(OC)cc2)cc1 | -44.1 | 29.1 µM [falling, single point] | 29.1 µM [falling, single point]
COc1ccc(-c2cc(C(=O)N3CCN(C(c4ccccc4)c4ccccc4)CC3)no2)cc1 | -13 |  | 
CC(C)C(C(=O)NC1CCCC1)N(CC1CCCO1)C(=O)CNS(=O)(=O)c1ccc(F)cc1 (stereo unspecified) |  |  | 2.59 µM [falling, partial curve]
COc1ccc(C(=O)Nc2nc(C)cc(C)n2)cc1[N+](=O)[O-] | -83.3 | 29.1 µM [falling, single point] | 
CCCOC(=O)CCCN1C(=O)/C(=C2\SC(=S)N(CCCC(=O)OCCC)C2=O)SC1=S | -25.1 |  | 29.1 µM [falling, single point]
COc1ccccc1NCc1ccc([N+](=O)[O-])s1 | -13.2 |  | 0.259 µM [falling, full curve, poor fit]
Cc1ccc(NC(=S)NCc2ccc3c(c2)cc(C)n3C)c(C)c1 | 41.6 |  | 
Nc1ccc2nc3n(c(=O)c2c1)CCC3 | 35.2 | 0.146 µM [rising, full curve, poor fit] | 
O=C1C2CCCN2c2ccc(S(=O)(=O)N3CCOCC3)cc2N1Cc1cccc(C(F)(F)F)c1 (stereo unspecified) | 34.7 | 23.1 µM [rising, single point] | 
CCOC(=O)c1ccc2c(c1)nc(SC/C(O)=C(\C#N)c1nc3ccccc3[nH]1)n2CC | 51.6 | 9.2 µM [rising, partial curve] | 0.58 µM [rising, partial curve]

Part of the list above, with tabs:
Structure (SMILES)	cell number change [%]	AC50 [1]	AC50 [2]
Cc1ccc(SCc2c(C(=O)N/N=C/c3ccc4c(c3)OCO4)nnn2-c2nonc2N)cc1	22.5		29.1 µM [falling, single point]
O=C(N=C1SC2CS(=O)(=O)CC2N1c1ccc(Cl)cc1Cl)C1CC1 (stereo unspecified)	7.76		
NS(=O)(=O)c1cc(C(=O)OCC(=O)Nc2ccccc2[N+](=O)[O-])ccc1Cl	-12.9		
COc1ccc(O)c(/C=N\NC(=O)CCn2nnc3ccccc32)c1		0.58 µM [rising, partial curve]	
COc1ccc(-c2nc(NC(C)=O)sc2-c2ccc(OC)cc2)cc1	-44.1	29.1 µM [falling, single point]	29.1 µM [falling, single point]
COc1ccc(-c2cc(C(=O)N3CCN(C(c4ccccc4)c4ccccc4)CC3)no2)cc1	-13		
CC(C)C(C(=O)NC1CCCC1)N(CC1CCCO1)C(=O)CNS(=O)(=O)c1ccc(F)cc1 (stereo unspecified)			2.59 µM [falling, partial curve]
COc1ccc(C(=O)Nc2nc(C)cc(C)n2)cc1[N+](=O)[O-]	-83.3	29.1 µM [falling, single point]	
CCCOC(=O)CCCN1C(=O)/C(=C2\SC(=S)N(CCCC(=O)OCCC)C2=O)SC1=S	-25.1		29.1 µM [falling, single point]
COc1ccccc1NCc1ccc([N+](=O)[O-])s1	-13.2		0.259 µM [falling, full curve, poor fit]
